Series [1] in a line: Activation of Z-Aib-OH by the amide linking reagents (NMR conversion to active ester). The following applies: THF, TMP.
Series [2] in a line: Synthesis of Ac-Phe-Ala-OMe: conversion and degree of epimerisation by 1H NMR. The following applies: THF, TMP.

With `CN(C)C(On1nnc2ccccc2c1=O)=[N+](C)C` [drawing 8], the “Conversion, % for X- = BF4-” value in series [1] (4 minutes) worked out at 6%; in series [1] (20 minutes), 36%; in series [1] (40 minutes), 62%. The “Conversion, % for X- = [(C2F5)3PF3]-” value in series [1] (4 minutes) is reported as 90%; in series [1] (20 minutes), 95%; in series [1] (40 minutes) it was 99%.

`CN(C)C(Oc1c(F)c(F)c(F)c(F)c1F)=[N+](C)C` [drawing 10]: the “Conversion, % for X- = PF6-” value in series [1] (4 minutes) stood at 52%; in series [1] (20 minutes), 80%; in series [1] (40 minutes), 87%. For the same compound, the results for the “Conversion, % for X- = [(C2F5)3PF3]-” value in series [1] (4 minutes), in series [1] (20 minutes) and in series [1] (40 minutes) were 91%, 95% and 97%, respectively.

Turning to `CN(C)C(Sc1cccc[n+]1[O-])=[N+](C)C` [drawing 11], the “Conversion, % for X- = PF6-” value in series [1] (4 minutes) is listed as 3.7%; in series [1] (20 minutes), 3.7%; in series [1] (40 minutes), 4.0%. Also, the entries for the “Conversion, % for X- = [(C2F5)3PF3]-” value in series [1] (4 minutes), in series [1] (20 minutes) and in series [1] (40 minutes) were 8%, 15% and 21%, respectively.

In the case of `CN(C)C(n1n[n+]([O-])c2ccccc21)=[N+](C)C` [drawing 12], the “Conversion, % for X- = PF6-” value amounted to 3% in series [1] (4 minutes), 2% in series [1] (20 minutes) and 4% in series [1] (40 minutes). Besides, the “Conversion, % for X- = [(C2F5)3PF3]-” value in series [1] (4 minutes) amounted to 79%; in series [1] (20 minutes), 89%; in series [1] (40 minutes), 95%.

On to `[O-][n+]1nn(C(N2CCCC2)=[N+]2CCCC2)c2ccccc21` [drawing 13], for which the entries for the “Conversion, % for X- = PF6-” value in series [1] (4 minutes), in series [1] (20 minutes) and in series [1] (40 minutes) were 11%, 21% and 24%, respectively. For the same compound, the “Conversion, % for X- = [(C2F5)3PF3]-” value in series [1] (4 minutes) is 87%; in series [1] (20 minutes), 97%; in series [1] (40 minutes), 97%.

Take `CN(C)C(n1n[n+]([O-])c2ncccc21)=[N+](C)C` [drawing 14]: the “Conversion, % for X- = PF6-” value is on record as 0% in series [1] (4 minutes), 0% in series [1] (20 minutes) and 6% in series [1] (40 minutes). Further, the “Conversion, % for X- = [(C2F5)3PF3]-” value in series [1] (4 minutes), in series [1] (20 minutes) and in series [1] (40 minutes) was 100 100 100% in each case.

On to `CN(C)[P+](On1nnc2ccccc21)(N(C)C)N(C)C` [drawing 15], for which the “Conversion, % for X- = PF6-” value in series [1] (4 minutes) is reported as 7%; in series [1] (20 minutes), 22%; in series [1] (40 minutes), 43%. For the same compound, the “Conversion, % for X- = [(C2F5)3PF3]-” value is 28% in series [1] (4 minutes), 64% in series [1] (20 minutes) and 76% in series [1] (40 minutes).

For the compound `c1cnc2c(c1)nnn2O[P+](N1CCCC1)(N1CCCC1)N1CCCC1` [drawing 17], the “Conversion, % for X- = PF6-” value was determined as 62% in series [1] (4 minutes), 89% in series [1] (20 minutes) and 93% in series [1] (40 minutes). Further, the results for the “Conversion, % for X- = [(C2F5)3PF3]-” value in series [1] (4 minutes), in series [1] (20 minutes) and in series [1] (40 minutes) were 71%, 90% and 93%, respectively.

`CN(C)C(On1nnc2ccccc2c1=O)=[N+](C)C` [drawing 19]: the entries for the “Conversion, % for X- = BF4-” value in series [2] (5 minutes), in series [2] (10 minutes) and in series [2] (15 minutes) were 74%, 89% and 94%, respectively. The “Conversion, % for X- = [(C2F5)3PF3]-” value in series [2] (5 minutes), in series [2] (10 minutes) and in series [2] (15 minutes) was 100 100 100% each time.

For `CN(C)C(Oc1c(F)c(F)c(F)c(F)c1F)=[N+](C)C` [drawing 21], the “Conversion, % for X- = PF6-” value in series [2] (5 minutes) came out at 32%; in series [2] (10 minutes), 55%; in series [2] (15 minutes) it was 68%. Besides, the “Conversion, % for X- = [(C2F5)3PF3]-” value in series [2] (5 minutes) is reported as 44%; in series [2] (10 minutes), 63%; in series [2] (15 minutes) it was 73%.

As to `CN(C)C(Sc1cccc[n+]1[O-])=[N+](C)C` [drawing 22], the results for the “Conversion, % for X- = PF6-” value in series [2] (5 minutes), in series [2] (10 minutes) and in series [2] (15 minutes) were 0%, 1.7% and 2%, respectively. Moreover, the entries for the “Conversion, % for X- = [(C2F5)3PF3]-” value in series [2] (5 minutes), in series [2] (10 minutes) and in series [2] (15 minutes) were 5%, 13% and 19%, respectively.

As to `CN(C)C(n1n[n+]([O-])c2ccccc21)=[N+](C)C` [drawing 23], the “Conversion, % for X- = PF6-” value in series [2] (5 minutes) stood at 5.3%; in series [2] (10 minutes), 6%; in series [2] (15 minutes), 6.3%. The figures for the “Conversion, % for X- = [(C2F5)3PF3]-” value in series [2] (5 minutes), in series [2] (10 minutes) and in series [2] (15 minutes) were 93%, 100% and 100%, respectively.

As for `[O-][n+]1nn(C(N2CCCC2)=[N+]2CCCC2)c2ccccc21` [drawing 24], the “Conversion, % for X- = PF6-” value was 49% in series [2] (5 minutes), 69% in series [2] (10 minutes) and 76% in series [2] (15 minutes). Further, the “Conversion, % for X- = [(C2F5)3PF3]-” value in series [2] (5 minutes), in series [2] (10 minutes) and in series [2] (15 minutes) was 100 100 100% each time.

With `CN(C)C(n1n[n+]([O-])c2ncccc21)=[N+](C)C` [drawing 25], the “Conversion, % for X- = PF6-” value worked out at 58% in series [2] (5 minutes), 69% in series [2] (10 minutes) and 76% in series [2] (15 minutes). The “Conversion, % for X- = [(C2F5)3PF3]-” value in series [2] (5 minutes), in series [2] (10 minutes) and in series [2] (15 minutes) was 100 100 100% in each case.

As to `CN(C)[P+](On1nnc2ccccc21)(N(C)C)N(C)C` [drawing 26], the “Conversion, % for X- = PF6-” value amounted to 44% in series [2] (5 minutes), 59% in series [2] (10 minutes) and 68% in series [2] (15 minutes). Further, the “Conversion, % for X- = [(C2F5)3PF3]-” value was determined as 67% in series [2] (5 minutes), 77% in series [2] (10 minutes) and 80% in series [2] (15 minutes).

Turning to `c1cnc2c(c1)nnn2O[P+](N1CCCC1)(N1CCCC1)N1CCCC1` [drawing 28], the “Conversion, % for X- = PF6-” value in series [2] (5 minutes) amounted to 90%; in series [2] (10 minutes) it was 97%; in series [2] (15 minutes) it was 100%. Besides, the figures for the “Conversion, % for X- = [(C2F5)3PF3]-” value in series [2] (5 minutes), in series [2] (10 minutes) and in series [2] (15 minutes) were 92%, 100% and 100%, respectively.

Turning to `CN(C)C(On1nnc2ccccc2c1=O)=[N+](C)C` [drawing 29], the “Epimerisation, % for X- = BF4-” value in series [2] (5 minutes) amounted to 0%; in series [2] (10 minutes) it was 0%; in series [2] (15 minutes), 0.6%. The “Epimerisation, % for X- = [(C2F5)3PF3]-” value in series [2] (5 minutes) is 0%; in series [2] (10 minutes), 0%; in series [2] (15 minutes), 0.4%.

Regarding `CN(C)C(Oc1c(F)c(F)c(F)c(F)c1F)=[N+](C)C` [drawing 31], the “Epimerisation, % for X- = PF6-” value in series [2] (5 minutes) was determined as 3.9%; in series [2] (10 minutes), 6.0%; in series [2] (15 minutes) it was 8.1%. Also, the results for the “Epimerisation, % for X- = [(C2F5)3PF3]-” value in series [2] (5 minutes), in series [2] (10 minutes) and in series [2] (15 minutes) were 6.2%, 9.0% and 9.9%, respectively.

On to `CN(C)C(Sc1cccc[n+]1[O-])=[N+](C)C` [drawing 32], for which the “Epimerisation, % for X- = [(C2F5)3PF3]-” value in series [2] (10 minutes) and in series [2] (15 minutes) was “b 9.1 9.1%” in each case.

On to `CN(C)C(n1n[n+]([O-])c2ccccc21)=[N+](C)C` [drawing 33], for which the “Epimerisation, % for X- = [(C2F5)3PF3]-” value in series [2] (5 minutes) turned out to be 3.1%; in series [2] (10 minutes), 2.8%; in series [2] (15 minutes) it was 3.2%.

For the compound `[O-][n+]1nn(C(N2CCCC2)=[N+]2CCCC2)c2ccccc21` [drawing 34], the “Epimerisation, % for X- = PF6-” value in series [2] (5 minutes) amounted to 8.2%; in series [2] (10 minutes), 7.3%; in series [2] (15 minutes) it was 5.0%. Besides, the “Epimerisation, % for X- = [(C2F5)3PF3]-” value was found to be 3.3% in series [2] (5 minutes), 1.8% in series [2] (10 minutes) and 2.4% in series [2] (15 minutes).

For `CN(C)C(n1n[n+]([O-])c2ncccc21)=[N+](C)C` [drawing 35], the “Epimerisation, % for X- = PF6-” value in series [2] (5 minutes) amounted to 0%; in series [2] (10 minutes) it was 1.0%; in series [2] (15 minutes), 1.0%. Moreover, the “Epimerisation, % for X- = [(C2F5)3PF3]-” value was determined as 1.6% in series [2] (5 minutes), 1.2% in series [2] (10 minutes) and 1.4% in series [2] (15 minutes).

Consider `CN(C)[P+](On1nnc2ccccc21)(N(C)C)N(C)C` [drawing 36], for which the results for the “Epimerisation, % for X- = PF6-” value in series [2] (5 minutes), in series [2] (10 minutes) and in series [2] (15 minutes) were 3.5%, 3.9% and 4.2%, respectively. Moreover, the results for the “Epimerisation, % for X- = [(C2F5)3PF3]-” value in series [2] (5 minutes), in series [2] (10 minutes) and in series [2] (15 minutes) were 1.9%, 3.0% and 3.4%, respectively.

In the case of `c1cnc2c(c1)nnn2O[P+](N1CCCC1)(N1CCCC1)N1CCCC1` [drawing 38], the “Epimerisation, % for X- = PF6-” value in series [2] (5 minutes) came to 0.7%; in series [2] (10 minutes), 0.7%; in series [2] (15 minutes) it was 0.8%. The entries for the “Epimerisation, % for X- = [(C2F5)3PF3]-” value in series [2] (5 minutes), in series [2] (10 minutes) and in series [2] (15 minutes) were 0.9%, 0.6% and 1.0%, respectively.

With “(7-Azabenzotriazol-1-yloxy)tris(pyrrolidino)phosphonium tris(pentafluoroethyl)trifluorophosphate [PyAOP-FAP]”, the “acceleration of the activation of the acid compared with the BF4/PF6 analogue” value in series [1] (Z-Aib-OH) is reported as “less pronounced”.

Values taken from patent US10544186B2, “Process for the synthesis of amide bonds with the aid of novel catalysts” (Merck Patent GmbH, priority 2016, dated 2020).
